Source: the supplement of paper PMC8728848
Some of the results follow.

Assays:
Assay in all cases: glycan array binding signal (z-score within array); higher = stronger binding
Conditions in all cases: glycan notation: IUPAC condensed, linker removed
Neu5Ac(a2-8)Neu5Ac = biological target: Neu5Ac(a2-8)Neu5Ac
In short: (§1)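 The binding signal is a Z-score computed within each array and averaged over linkers. Arrays of the same protein sequence at different concentrations or buffers were also averaged together. Data originate from 3228 arrays in the Consortium for Functional Glycomics database, kept only where the protein sequence was available.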

[1] = biological target: Neu5Ac(a2-8)Neu5Ac(a2-3)Gal(b1-3)GalNAc(b1-4)[Neu5Ac(a2-3)]Gal(b1-4)Glc
In short: as §1

[2] = biological target: Neu5Ac(a2-8)Neu5Ac(a2-3)Gal(b1-3)GalNAc(b1-4)[Neu5Ac(a2-8)Neu5Ac(a2-3)]Gal(b1-4)Glc
In short: as §1

[3] = biological target: Neu5Ac(a2-8)Neu5Ac(a2-3)Gal(b1-4)Glc
In short: as §1

[4] = biological target: Neu5Ac(a2-8)Neu5Ac(a2-3)Gal(b1-4)GlcNAc
In short: as §1

[5] = biological target: Neu5Ac(a2-8)Neu5Ac(a2-3)[Gal(b1-3)GalNAc(b1-4)]Gal(b1-4)Glc
In short: as §1

[6] = biological target: Neu5Ac(a2-8)Neu5Ac(a2-3)[GalNAc(b1-4)]Gal(b1-4)Glc
In short: as §1

[7] = biological target: Neu5Ac(a2-8)Neu5Ac(a2-8)Neu5Ac
In short: as §1

[8] = biological target: Neu5Ac(a2-8)Neu5Ac(a2-8)Neu5Ac(a2-3)Gal(b1-4)Glc
In short: as §1

[9] = biological target: Neu5Ac(a2-8)Neu5Ac(a2-8)Neu5Ac(a2-3)[Gal(b1-3)GalNAc(b1-4)]Gal(b1-4)Glc
In short: as §1

[10] = biological target: Neu5Ac(a2-8)Neu5Ac(a2-8)Neu5Ac(a2-3)[GalNAc(b1-4)]Gal(b1-4)Glc
In short: as §1

[11] = biological target: Neu5Ac(a2-8)Neu5Ac(a2-8)Neu5Ac(a2-8)Neu5Ac(a2-3)[GalNAc(b1-4)]Gal(b1-4)Glc
In short: as §1

[12] = biological target: Neu5Ac(a2-8)Neu5Gc(a2-3)Gal(b1-4)GlcNAc
In short: as §1

[13] = biological target: Neu5Ac(b2-6)Gal(b1-4)GlcNAc
In short: as §1

Neu5Ac(b2-6)GalNAc = biological target: Neu5Ac(b2-6)GalNAc
In short: as §1

[14] = biological target: Neu5Ac9Ac(a2-3)Gal(b1-3)GlcNAc
In short: as §1

[15] = biological target: Neu5Ac9Ac(a2-3)Gal(b1-4)GlcNAc
In short: as §1

[16] = biological target: Neu5Ac9Ac(a2-6)Gal(b1-4)GlcNAc
In short: as §1

[17] = biological target: Neu5Gc(a2-3)Gal(b1-3)GlcNAc
In short: as §1

[18] = biological target: Neu5Gc(a2-3)Gal(b1-3)[Fuc(a1-4)]GlcNAc
In short: as §1

Neu5Gc(a2-3)Gal(b1-4)Glc = biological target: Neu5Gc(a2-3)Gal(b1-4)Glc
In short: as §1

[19] = biological target: Neu5Gc(a2-3)Gal(b1-4)GlcNAc
In short: as §1

[20] = biological target: Neu5Gc(a2-3)Gal(b1-4)GlcNAc(b1-3)Gal(b1-4)GlcNAc(b1-2)Man(a1-3)[Neu5Gc(a2-3)Gal(b1-4)GlcNAc(b1-3)Gal(b1-4)GlcNAc(b1-2)Man(a1-6)]Man(b1-4)GlcNAc(b1-4)GlcNAc
In short: as §1

[21] = biological target: Neu5Gc(a2-3)Gal(b1-4)[Fuc(a1-3)]GlcNAc
In short: as §1

[22] = biological target: Neu5Gc(a2-6)Gal(b1-4)GlcNAc
In short: as §1

Neu5Gc(a2-6)GalNAc = biological target: Neu5Gc(a2-6)GalNAc
In short: as §1

[23] = biological target: Neu5Gc(a2-8)Neu5Ac(a2-3)Gal(b1-4)GlcNAc
In short: as §1

[24] = biological target: Neu5Gc(a2-8)Neu5Gc(a2-3)Gal(b1-4)GlcNAc
In short: as §1

[25] = biological target: Neu5Gc(a2-8)Neu5Gc(a2-3)Gal(b1-4)GlcNAc(b1-3)Gal(b1-4)GlcNAc
In short: as §1

[26] = biological target: Neu5Gc(a2-8)Neu5Gc(a2-6)Gal(b1-4)GlcNAc
In short: as §1

[27] = biological target: Neu5Gc(b2-6)Gal(b1-4)GlcNAc
In short: as §1

B1: MXA PilAct-eGFP (Myxococcus xanthus), Q59589 (protein)
chain: MRVSRFNPRNRGFTLIELMIVVAIIGILAAIAIPNFIKFQARSKQSEAKTNLKALYTAQKSFFSEKDRYSDFANEIGFAPERGNRYGYRVSAAAGDCEVRNAADLPVPAAGVPCISNDSFRFGANSAIDDPTPVVARFVPQGAAGWNTTLGVQPTIADCPNCNFFAGARGNADNEATFDDWVIAGFEGSGQVGPCSEAGNVASGTPYNTRNDVACDGAAQ
glycan array binding signal (z-score) (Neu5Ac(a2-8)Neu5Ac): -0.109 | glycan array binding signal (z-score) [1]: -0.408 | glycan array binding signal (z-score) [2]: -0.32 | glycan array binding signal (z-score) [3]: -0.831 | glycan array binding signal (z-score) [4]: 0.947 | glycan array binding signal (z-score) [5]: 0.314 | glycan array binding signal (z-score) [6]: 3.6 | glycan array binding signal (z-score) [7]: -0.469 | glycan array binding signal (z-score) [8]: -0.589 | glycan array binding signal (z-score) [9]: -1.16 | glycan array binding signal (z-score) [10]: 0.792 | glycan array binding signal (z-score) [11]: 1.8 | glycan array binding signal (z-score) [12]: 1.33 | glycan array binding signal (z-score) [13]: 0.106 | glycan array binding signal (z-score) (Neu5Ac(b2-6)GalNAc): 0.611 | glycan array binding signal (z-score) [14]: 4.29 | glycan array binding signal (z-score) [15]: -0.852 | glycan array binding signal (z-score) [16]: -0.668 | glycan array binding signal (z-score) [17]: 0.057 | glycan array binding signal (z-score) [18]: 0.021 | glycan array binding signal (z-score) (Neu5Gc(a2-3)Gal(b1-4)Glc): -0.589 | glycan array binding signal (z-score) [19]: 0.407 | glycan array binding signal (z-score) [20]: 0.6 | glycan array binding signal (z-score) [21]: -0.274 | glycan array binding signal (z-score) [22]: 0.306 | glycan array binding signal (z-score) (Neu5Gc(a2-6)GalNAc): -0.802 | glycan array binding signal (z-score) [23]: -0.085 | glycan array binding signal (z-score) [24]: -0.272 | glycan array binding signal (z-score) [25]: 0.474 | glycan array binding signal (z-score) [26]: 0.272 | glycan array binding signal (z-score) [27]: 0.287
